PubChem BioAssay AID2685 (National Center for Advancing Translational Sciences (NCATS), 2010)
Some of the results follow. Further columns of the screen follow, without active or inactive calls. Most of these compounds were active or inconclusive in the main read-out, so they are no random draw. Words in brackets tell the shape of the fitted curve; partial curves, single points and poor fits give uncertain potencies.

Experiment: qHTS Assay for Lipid Storage Modulators in Drosophila S3 Cells;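 on cell number change: cells counted by Cell Tracker Red CMTPX staining in the red channel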
Conditions: BODIPY lipid droplet fluorescence, 18-24 h; for cell number change: measured here: cell count max response, cells fed with added oleic acid
In short: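 Laser-scanning cytometry quantifies lipid droplet accumulation (500–530 nm total intensity; droplet/cell object ratio) in oleic acid-fed (400 uM added) Drosophila S3 cells treated with a concentration series. 20 uM Triacsin C defined 100% inhibition.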

[1] = measured here: lipid fluorescence (Fed channel) AC50, cells fed with added oleic acid
[2] = measured here: cell number channel AC50, cells fed with added oleic acid

Compound	cell number change	AC50 [1]	AC50 [2]
O=C(NCc1cccc(Cl)c1)C1CCCN(c2ncnc3c2nc2n3CCCCC2)C1 (configuration not stated)	3.44%	6510 nM [rising, single point]	
Cc1cc(C(=O)Nc2nc(-c3ccccn3)cs2)ccc1[N+](=O)[O-]	-10.3%	2910 nM [rising, partial curve]	3260 nM [rising, partial curve, poor fit]
Cc1ccsc1C1C=C(c2cccc(Br)c2)Nc2ncnn21 (configuration not stated)	-34.4%		731 nM [falling, full curve, poor fit]
CCCCn1c(NC(=O)c2ccco2)c(S(=O)(=O)c2ccc(C)cc2)c2nc3ccccc3nc21	32.1%		8200 nM [rising, partial curve]
CCCCn1c(N)c(N(CC(C)C)C(=O)CSc2n[nH]c(-c3ccc(C)cc3)n2)c(=O)[nH]c1=O	-16.5%		
COc1cc(OC)cc(C(=O)NNC(=O)CN2C(=O)NC(C)(c3ccccc3)C2=O)c1 (configuration not stated)	0.855%	29100 nM [rising, partial curve, poor fit]	
CN(Cc1ccccc1)c1ccc(S(=O)(=O)N2CCC(C(=O)O)CC2)cc1[N+](=O)[O-]	32.9%	164 nM [rising, full curve]	146 nM [rising, full curve, poor fit]
Cc1ccc(-n2nc3c(c2NC(=O)c2ccc4c(c2)OCO4)CS(=O)(=O)C3)cc1	13.7%	461 nM [falling, full curve, poor fit]	
N#C/C(=C(\O)CCl)c1nnc2n1CCCCC2	-16.9%	116 nM [falling, full curve, poor fit]	
COc1ccc(C2=NN(C(=O)c3ccc(Cl)c([N+](=O)[O-])c3)C(c3ccccc3)C2)cc1 (configuration not stated)	2.81%	18400 nM [rising, single point]	
COc1cc(OC)cc(C(=O)NNC(=O)CN2C(=O)NC(C)(c3ccc(C)cc3)C2=O)c1 (configuration not stated)	20.2%	29100 nM [rising, single point]	
O=C(NCCOCCNC(=O)OCc1ccccc1)OCc1ccccc1	11.8%		
CCOC(=O)N1CCN(C(=O)C(C)n2nc(C)n3c(cc4sccc43)c2=O)CC1 (configuration not stated)	7.18%		164 nM [rising, full curve, poor fit]
CC(C)NC(=O)c1cc2c(=O)n3ccccc3nc2s1	26.1%	29100 nM [rising, single point]	4.11 nM [rising, full curve, poor fit]
CCn1c(C)nnc1SCC(=O)NC1CCCC1	-10%		
O=C(NCCCn1ccnc1)C1CC(c2ccccc2Cl)=NO1 (configuration not stated)	6.95%	206 nM [rising, full curve, poor fit]	
CCOC(=O)C(CC)n1cnc2c(nnn2-c2cccc(OC)c2)c1=O (configuration not stated)	-18%	580 nM [rising, single point]	
O=C(Nc1nccs1)C(c1ccccc1)N1CCCCC1 (configuration not stated)	24.9%	820 nM [rising, partial curve, poor fit]	820 nM [rising, partial curve, poor fit]
COc1ccc(-n2c(=S)[nH]c3cc(C(=O)NCc4cccnc4)ccc3c2=O)c(OC)c1	14.5%	1300 nM [rising, full curve]	
CCCC(=O)Nc1cc(S(=O)(=O)N2CCCCC2)ccc1N1CCOCC1	-1.2%	6510 nM [rising, single point]	
COc1ccc(-c2csc(-c3ccc(C(=O)O)cc3)n2)cc1	-21.6%		
Cc1cccn2c(=O)c3cc(C(=O)NC4CCS(=O)(=O)C4)n(Cc4ccccc4)c3nc12 (configuration not stated)	237%	29100 nM [rising, single point]	29100 nM [rising, single point]
Cc1ccc(C2C(C#N)=C(N)Oc3cc4c(cc32)OCO4)cc1 (configuration not stated)		6510 nM [rising, single point]	6510 nM [rising, single point]
O=C(NCCCN1CCOCC1)NC12CC3CC(CC(C3)C1)C2	5.91%	231 nM [rising, full curve, poor fit]	
CCOC(=O)C1CCCN(Cc2nc3ccc([N+](=O)[O-])cc3c(=O)n2-c2ccc(OC)cc2OC)C1 (configuration not stated)	-12.9%	6510 nM [rising, partial curve, poor fit]	6510 nM [rising, partial curve, poor fit]
COc1ccc2[nH]c(C(=O)NCCCN3CCCC3=O)c(C)c2c1	1.98%	116 nM [falling, single point]	
Cc1c(Nc2nc(-c3cccc([N+](=O)[O-])c3)cs2)c(=O)n(-c2ccccc2)n1C	4.77%	9200 nM [rising, partial curve, poor fit]	
CCN(CC)CC(=O)N(CC(=O)Nc1c(C)cc(C)cc1C)C1CCCCC1	-14.4%	2590 nM [rising, single point]	

Compound	cell number change	AC50 [1]	AC50 [2]
COc1ccc(C#Cc2ccc3c(=O)c4ccccc4n(C)c3c2)cc1	19.7%	130 nM [falling, full curve, poor fit]	
O=C(/C=C/c1cccc(Cl)c1)OCc1cn2cc(Cl)ccc2n1	51.4%	6510 nM [falling, single point]	6510 nM [falling, single point]
O=[N+]([O-])c1ccc(S(=O)(=O)NCC(c2ccco2)N2CCc3ccccc3C2)cc1 (configuration not stated)	21.4%	7310 nM [rising, partial curve, poor fit]	
CCS(=O)(=O)Nc1ccc2c(c1)OCO2	-19.6%	517 nM [falling, full curve]	
CCCN(CC1CC1)C(=O)COC(=O)c1oc2c(F)cccc2c1C		731 nM [falling, full curve]	
O=C(CCc1nc(-c2ccccc2F)no1)NCCc1ccccc1Cl	-24.2%		
CC(C)NC(=O)c1ccccc1N(Cc1ccccc1)S(C)(=O)=O	-11.9%		
COC(=O)c1ccc(Cl)c(NC(C)=O)c1	-19.3%	29100 nM [rising, single point]	651 nM [falling, full curve, poor fit]
COc1ccccc1C(=O)Nc1ccc(Cc2ccncc2)cc1	2.14%	411 nM [falling, full curve]	920 nM [rising, partial curve]
Cc1sc(NC(=O)CSc2nc(N)cc(N)n2)c(C#N)c1C	13%	36.6 nM [rising, full curve]	
CCC[C@@H]1CCCC/C=C\CCCC(=O)OCCN1C(=O)OC(C)(C)C	9.25%	5.17 nM [falling, full curve, poor fit]	1160 nM [falling, single point]
COC(=O)C1CCN(C(=O)Cc2ccc(Br)cc2)CC1	-34.6%	580 nM [falling, single point]	
COc1ccc(NC(=S)NC2CC3CCCC(C2)N3C2CC2)cc1 (configuration not stated)	-48.4%	2590 nM [rising, single point]	29100 nM [falling, single point]
COc1ccc(-c2oc(=O)c3cc(OC)c(OC)cc3c2-c2cc(F)cc(OC)c2)cc1	-25.9%		146 nM [falling, full curve, poor fit]
O=[N+]([O-])c1ccc(CN2CCN(c3ccc(F)cc3)CC2)o1	-5.96%	580 nM [falling, single point]	
CCOC(=O)c1c(-c2ccccc2)oc2ccc(OC(C)C(=O)O)cc12 (configuration not stated)	-8%		184 nM [falling, full curve, poor fit]
COC(=O)c1ccc2c(c1)C(C)(C)C(/C=C/c1ccc(O)cc1)=[N+]2C		9200 nM [falling, partial curve, poor fit]	
CC1(C)C2CCC1(C)C(NC(=O)CCN1CCCCC1)C2 (configuration not stated)	-15.1%	461 nM [rising, partial curve, poor fit]	
CCOC(=O)CNC(=O)c1cc(OC)cc(OC)c1	19.8%	5.17 nM [rising, full curve, poor fit]	3260 nM [rising, single point]
COc1ccc(C(c2nnnn2C2CCCC2)N2CCC(C)CC2)cc1 (configuration not stated)	24.1%	4110 nM [falling, partial curve, poor fit]	
CCc1ccccc1NS(=O)(=O)c1cc2c(cc1C)n(C)c(=O)c(=O)n2C	-33.1%	1840 nM [falling, partial curve, poor fit]	25900 nM [falling, single point]
COc1ccc(NC(=O)/C(C#N)=C\c2cc(C)n(-c3ccc4c(c3)OCO4)c2C)cc1	-6.02%	731 nM [rising, partial curve, poor fit]	651 nM [rising, single point]
COc1ccc(NC(=O)CN2CCN(C(=O)C3CCCO3)CC2)c(OC)c1 (configuration not stated)	-14.6%	1840 nM [rising, partial curve]	
COC(=O)c1ccc(N(C(=O)CNC(=O)c2ccco2)C(C(=O)NCC2CCCO2)c2ccc(OC)c(OC)c2)cc1 (configuration not stated)	21%	29100 nM [rising, single point]	
CCCCCCC1CCC(C(=O)N2CCOCC2)CC1 (configuration not stated)	11%		651 nM [falling, single point]
CCC(C)C(NC(=O)C1CCC(C)CC1)C(=O)NCCc1ccc(S(N)(=O)=O)cc1 (configuration not stated)	4.36%	4.11 nM [rising, full curve, poor fit]	
CCc1ccccc1NC(=O)c1cc2sccc2n1C	43.1%	18400 nM [falling, single point]	29100 nM [rising, single point]

Molecules shown so far containing an aryl thioether with sulfur outside any ring (three):
Compound	cell number change	AC50 [1]	AC50 [2]
CCCCn1c(N)c(N(CC(C)C)C(=O)CSc2n[nH]c(-c3ccc(C)cc3)n2)c(=O)[nH]c1=O	-16.5%		
CCn1c(C)nnc1SCC(=O)NC1CCCC1	-10%		
Cc1sc(NC(=O)CSc2nc(N)cc(N)n2)c(C#N)c1C	13%	36.6 nM [rising, full curve]	

Sorted by number of heavy atoms (low to high): some entries from above
Compound	cell number change	AC50 [1]	AC50 [2]
CC1(C)C2CCC1(C)C(NC(=O)CCN1CCCCC1)C2 (configuration not stated)	-15.1%	461 nM [rising, partial curve, poor fit]	
CCc1ccccc1NS(=O)(=O)c1cc2c(cc1C)n(C)c(=O)c(=O)n2C	-33.1%	1840 nM [falling, partial curve, poor fit]	25900 nM [falling, single point]
COc1ccc(NC(=O)/C(C#N)=C\c2cc(C)n(-c3ccc4c(c3)OCO4)c2C)cc1	-6.02%	731 nM [rising, partial curve, poor fit]	651 nM [rising, single point]
